Test results taken from the supplement of paper PMC3334620.
The full ranking holds about 33,000 sequences; the median of “E-score (-0.5 to 0.5)” is about -0.016, and the highest 2% start at about 0.3. This is one part of the list.

Each sequence was assayed against T1, Yer184c (UniProt P39961) (assay: PBM E-score (8-mer binding enrichment) (E-score (-0.5 to 0.5)); higher = stronger / more preferred TF binding). Conditions: protein concentration: 100 nM; construct: GST-full length.
T1 sequence: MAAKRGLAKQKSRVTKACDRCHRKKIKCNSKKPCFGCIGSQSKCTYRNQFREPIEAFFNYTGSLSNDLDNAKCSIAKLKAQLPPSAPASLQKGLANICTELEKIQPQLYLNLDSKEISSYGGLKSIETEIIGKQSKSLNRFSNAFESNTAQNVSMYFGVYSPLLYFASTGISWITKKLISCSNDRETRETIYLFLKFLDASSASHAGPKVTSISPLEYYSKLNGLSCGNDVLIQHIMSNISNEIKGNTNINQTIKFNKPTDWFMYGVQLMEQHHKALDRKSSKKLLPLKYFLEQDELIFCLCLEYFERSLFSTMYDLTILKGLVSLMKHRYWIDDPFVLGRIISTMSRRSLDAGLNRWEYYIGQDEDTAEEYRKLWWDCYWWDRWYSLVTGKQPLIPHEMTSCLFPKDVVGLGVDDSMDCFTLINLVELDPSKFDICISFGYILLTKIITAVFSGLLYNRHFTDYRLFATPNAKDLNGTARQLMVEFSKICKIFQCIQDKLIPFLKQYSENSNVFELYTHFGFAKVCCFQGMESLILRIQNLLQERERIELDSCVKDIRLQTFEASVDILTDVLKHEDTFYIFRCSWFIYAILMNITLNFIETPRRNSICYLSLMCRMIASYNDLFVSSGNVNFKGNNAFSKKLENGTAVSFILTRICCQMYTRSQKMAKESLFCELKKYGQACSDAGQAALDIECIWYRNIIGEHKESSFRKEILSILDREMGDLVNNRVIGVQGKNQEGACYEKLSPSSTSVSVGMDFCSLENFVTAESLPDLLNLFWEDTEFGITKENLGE
How it was run: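 Universal all-10-mer Agilent arrays, double-stranded by primer extension on fresh or once-stripped slides, were probed with about 100-200 nM GST-tagged yeast transcription factors made by PURExpress. Fluorescent anti-GST detected bound protein, and masliner normalised the scans. E-scores from the Universal PBM Analysis Suite were given to each ungapped eight-base word pooled with its reverse complement.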

Sequence | PBM E-score
CAACCTCG | 0.0973
CTGTAAAC | -0.124
CGTATACC | -0.0886
TAGAGGGA | -0.199
CTTCCCTC | -0.208
ACCTCCCT | -0.291
ACGCCACA | -0.0484
ACTAAGAC | 0.106
GTTCGCGA | 0.311
GAGCCGCC | 0.0613
CTCGTCAA | -0.132
CTGTCCCA | -0.156
AGTTATAC | 0.125
ACCGAGAC | 0.0458
CCTCAGCC | -0.233
GGTCAACC | -0.0565
GAGAGCAA | 0.0598
GAATCGTA | -0.0517
AGCTTTAA | 0.117
AGATTACA | 0.0368
GCTAAACC | 0.0346
TCGTATAA | 0.19

Sequence | PBM E-score
CCAAAGAG | -0.0125
AATTTTGG | 0.0485
AAATAACC | 0.0509
GAGGTGAA | -0.0223
CCCACATC | -0.0896
CAACCGTG | 0.0392
ACGAGTAC | 0.0638
AGAGGAGG | -0.344
ATACGCCA | -0.0438
CGGCGGGA | 0.24
AAGGAATA | 0.0561
CACGCCCA | -0.172
GCATGTCA | -0.156
CGTCGAAA | 0.161
GCTTCAAC | -0.0434
CCCTCCGG | 0.1
GGCCGAAC | 0.305
GCCCTAAC | 0.111
AAGGACTG | 0.00267
GTTCCCGA | 0.179
CTCATGGC | 0.00411
TAGCTATA | 0.00093

Sequence | PBM E-score
AACCGCAA | 0.161
GTCTCTAA | -0.0296
CCAAAGCC | -0.0564
CCGTCTAG | -0.00594
ACACAGTC | -0.101
CTGATGCC | 0.0862
CTAATCAC | 0.18
CTTTCTCC | -0.0187
ACTACATA | -0.0386
ATTGGACC | -0.154
CTCACCAA | -0.0127
ACGTGCGA | -0.0743
ATGGAATC | 0.157
GCTGGCAC | -0.198
CAGCACCC | -0.206
ATTTGTCC | 0.151
ATCAAGAG | 0.0289
ATCCCGCC | 0.0258
ACCACAGG | -0.253
AGATAGAT | -0.132
GGCTATAA | 0.133
ATCCTTAG | -0.165

Reformatted: entries from further up.
Sequence,PBM E-score
CACGCCCA,-0.172
GCATGTCA,-0.156
CGTCGAAA,0.161
GCTTCAAC,-0.0434
CCCTCCGG,0.1
GGCCGAAC,0.305
GCCCTAAC,0.111
AAGGACTG,0.00267
GTTCCCGA,0.179
CTCATGGC,0.00411
TAGCTATA,0.00093
AACCGCAA,0.161
GTCTCTAA,-0.0296
CCAAAGCC,-0.0564
CCGTCTAG,-0.00594
ACACAGTC,-0.101
CTGATGCC,0.0862
CTAATCAC,0.18
CTTTCTCC,-0.0187
ACTACATA,-0.0386
ATTGGACC,-0.154
CTCACCAA,-0.0127
ACGTGCGA,-0.0743
ATGGAATC,0.157
GCTGGCAC,-0.198
CAGCACCC,-0.206
ATTTGTCC,0.151
ATCAAGAG,0.0289
ATCCCGCC,0.0258
ACCACAGG,-0.253
AGATAGAT,-0.132
GGCTATAA,0.133
ATCCTTAG,-0.165

Taken from above:
PBM E-score with ACCACAGG reads -0.253
PBM E-score with ATGGAATC reads 0.157

Further results

Sequence | PBM E-score
ATCTCACG | 0.0291
AACCTCAT | 0.105
GCAACAGA | 0.157
ATGAATGG | -0.0399
ACGCGTAA | -0.0625
CGCAATTC | 0.044
AGGCTCAA | -0.157
ACACGGCG | 0.0813
CGGACCAG | 0.185
ACCCGGAT | 0.185
CAAAGCGC | 0.0549
ATGTATAC | 0.0697
CATTGATC | 0.0709
GAACTTTA | 0.0808
CGGGCCTA | -0.0419
GACGAGCC | -0.0865
CGGCCACA | 0.194
GCATGCTA | -0.205
ACGACCCA | -0.105
GTATACGA | 0.0948
AATGAACA | 0.133
CAAAAGGC | 0.0225

Sequence | PBM E-score
CATCCGGG | 0.223
TTAAACAA | 0.0594
CATTTTCC | 0.108
GGCACGCC | -0.18
GTTCGCCA | -0.0229
GCCCGCAA | 0.117
AAAGGACT | -0.113
ACAGATAT | 0.0496
AAACTAAG | 0.139
ACGTTTCG | 0.0977
CATCAAAA | 0.133
GAATAGGA | 0.0511
ATCATCAT | 0.0824
CGGAGCAA | 0.228
CGGATCTA | 0.179
CTCTTACA | -0.118
ACTCCCGC | 0.0159
ACACGCCA | -0.164
ATGTAAAC | 0.0984
TAGAGCGA | -0.27
TACGAAAA | 0.272
